Reference: PubChem BioAssay AID1159584 (Peter MacCallum Cancer Centre, 2016)

Aim: 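Genes whose loss is lethal only together with E-cadherin loss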 (primary screen)
Cell system: human MCF10A breast epithelial cells, parental and CDH1-null
Knock-down reagent: siRNA against human genes
Measured: 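ATP luminescence (CellTiter-Glo) viability per line relative to mean mock wells over all plates, and the ratio of CDH1-null to parental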
Direction: CDH1-null / parental viability ratio: higher = CDH1-null cells survive relatively better than parental; CDH1-null viability vs mock: higher = more viable CDH1-null cells
Units: CDH1-null viability vs mock in fraction of mock
This is a random part of about 18,000 reagents. Not all columns of the deposit are shown. The record does not give: the amount of reagent, the time to read-out.

With knock-down of TCEANC2 the results were CDH1-null / parental viability ratio 0.74; CDH1-null viability vs mock 0.55.
With knock-down of NRXN2 (neurexin 2), the record shows CDH1-null / parental viability ratio 1.04; CDH1-null viability vs mock 0.57.
F2RL1 (F2R like trypsin receptor 1) scored CDH1-null / parental viability ratio 0.74; CDH1-null viability vs mock 0.74.
VAT1 (vesicle amine transport 1) gave CDH1-null / parental viability ratio 0.92; CDH1-null viability vs mock 0.68.
For MRTFB (myocardin related transcription factor B), the values are CDH1-null / parental viability ratio 1.08; CDH1-null viability vs mock 1.06.
Silencing of ZC3H11D (zinc finger CCCH-type containing 11D) resulted in: CDH1-null / parental viability ratio 0.99; CDH1-null viability vs mock 0.79.
CAPNS1 (calpain small subunit 1) gave CDH1-null / parental viability ratio 1.23; CDH1-null viability vs mock 0.86.
After knock-down of C3orf70 (chromosome 3 open reading frame 70) the results were CDH1-null / parental viability ratio 1.06; CDH1-null viability vs mock 1.03.
Knock-down of AJAP1 (adherens junctions associated protein 1) resulted in: CDH1-null / parental viability ratio 1.2; CDH1-null viability vs mock 0.91.
TAOK3 (TAO kinase 3) scored CDH1-null / parental viability ratio 1; CDH1-null viability vs mock 1.01.
FAM117B (family with sequence similarity 117 member B) scored CDH1-null / parental viability ratio 0.77; CDH1-null viability vs mock 0.46.
Depletion of NEK8 (NIMA related kinase 8) came out at: CDH1-null / parental viability ratio 1; CDH1-null viability vs mock 0.72.
Silencing of KHNYN (KH and NYN domain containing) gave: CDH1-null / parental viability ratio 0.99; CDH1-null viability vs mock 1.01.
RPL32 (ribosomal protein L32) showed CDH1-null / parental viability ratio 1.24; CDH1-null viability vs mock 0.36.
MAPK11 (mitogen-activated protein kinase 11) gave CDH1-null / parental viability ratio 0.91; CDH1-null viability vs mock 0.6.
After knock-down of CPA5 (carboxypeptidase A5), the screen gave CDH1-null / parental viability ratio 1.17; CDH1-null viability vs mock 0.98.
With knock-down of OR1N1 (olfactory receptor family 1 subfamily N member 1) the results were CDH1-null / parental viability ratio 1.04; CDH1-null viability vs mock 0.78.
PLIN1 (perilipin 1) scored CDH1-null / parental viability ratio 0.96; CDH1-null viability vs mock 0.8.
THOC2 (THO complex subunit 2) gave CDH1-null / parental viability ratio 0.95; CDH1-null viability vs mock 0.74.
PCYT1A (phosphate cytidylyltransferase 1A, choline) scored CDH1-null / parental viability ratio 1.29; CDH1-null viability vs mock 1.2.
With knock-down of NME8 (NME/NM23 family member 8), the screen gave CDH1-null / parental viability ratio 1.09; CDH1-null viability vs mock 1.16.
After knock-down of SLC16A7, the record shows CDH1-null / parental viability ratio 1.02; CDH1-null viability vs mock 0.92.
ATG7 (autophagy related 7) scored CDH1-null / parental viability ratio 0.85; CDH1-null viability vs mock 0.78.
For RNF214 (ring finger protein 214), the entry reads CDH1-null / parental viability ratio 0.84; CDH1-null viability vs mock 0.72.
Depletion of ATP6V1E1 (ATPase H+ transporting V1 subunit E1) came out at: CDH1-null / parental viability ratio 0.92; CDH1-null viability vs mock 0.79.

Records listed so far whose gene name begins with F or f (2):
F2RL1 (F2R like trypsin receptor 1) | CDH1-null / parental viability ratio: 0.74; CDH1-null viability vs mock: 0.74
FAM117B (family with sequence similarity 117 member B) | CDH1-null / parental viability ratio: 0.77; CDH1-null viability vs mock: 0.46

The results go on:
TNFRSF1A (TNF receptor superfamily member 1A) showed CDH1-null / parental viability ratio 1.17; CDH1-null viability vs mock 0.88.
Knock-down of GALNTL6 (polypeptide N-acetylgalactosaminyltransferase like 6) gave: CDH1-null / parental viability ratio 1.06; CDH1-null viability vs mock 0.84.
For NCDN (neurochondrin) the deposit lists CDH1-null / parental viability ratio 0.86; CDH1-null viability vs mock 0.74.
Against RIF1 (replication timing regulatory factor 1), the entry reads CDH1-null / parental viability ratio 1.52; CDH1-null viability vs mock 0.88.
Knock-down of ASB8 (ankyrin repeat and SOCS box containing 8) came out at: CDH1-null / parental viability ratio 1.05; CDH1-null viability vs mock 0.86.
With knock-down of ATP5IF1 (ATP synthase inhibitory factor subunit 1) the results were CDH1-null / parental viability ratio 0.97; CDH1-null viability vs mock 0.66.
Depletion of PRCD (photoreceptor disc component) resulted in: CDH1-null / parental viability ratio 0.84; CDH1-null viability vs mock 0.69.
Knock-down of MEGF11 (multiple EGF like domains 11) gave: CDH1-null / parental viability ratio 1; CDH1-null viability vs mock 0.62.
GAB2 (GRB2 associated binding protein 2) showed CDH1-null / parental viability ratio 0.86; CDH1-null viability vs mock 0.76.
C1QTNF12 (C1q and TNF related 12) showed CDH1-null / parental viability ratio 0.99; CDH1-null viability vs mock 0.92.
EPC1 (enhancer of polycomb 1) gave CDH1-null / parental viability ratio 1.3; CDH1-null viability vs mock 1.17.
After knock-down of MAP2K6 (mitogen-activated protein kinase kinase 6), the record shows CDH1-null / parental viability ratio 0.84; CDH1-null viability vs mock 0.72.
Depletion of TMC6 (transmembrane channel like 6) resulted in: CDH1-null / parental viability ratio 1.13; CDH1-null viability vs mock 0.7.
Silencing of TMEM62 (transmembrane protein 62) gave: CDH1-null / parental viability ratio 1.3; CDH1-null viability vs mock 1.03.
Knock-down of NYAP1 resulted in: CDH1-null / parental viability ratio 0.83; CDH1-null viability vs mock 0.38.
Depletion of STAG2 (STAG2 cohesin complex component) resulted in: CDH1-null / parental viability ratio 1.2; CDH1-null viability vs mock 1.12.
Silencing of ZCCHC14 (zinc finger CCHC-type containing 14) resulted in: CDH1-null / parental viability ratio 1.03; CDH1-null viability vs mock 0.67.
With knock-down of RFTN2 (raftlin family member 2), the record shows CDH1-null / parental viability ratio 1.05; CDH1-null viability vs mock 1.
Silencing of POLR1H (RNA polymerase I subunit H) resulted in: CDH1-null / parental viability ratio 0.89; CDH1-null viability vs mock 0.75.
Silencing of HHIPL2 (HHIP like 2) came out at: CDH1-null / parental viability ratio 0.8; CDH1-null viability vs mock 0.86.
